According to PubChem BioAssay AID588499 (NMMLSC, 2011):
In all, about 360,000 compounds went through this assay and about 610 (0.17%) were called active. Inconclusive means that the source gave no clear call. Such entries were picked first, then a sample of the others. No stated cut-off is given here; in the data, active means inhibition above about 30%; inconclusive means no clear call, values can overlap the other calls; inactive means below that.

What follows are molecules tested on Botulinum neurotoxin type A light chain protease (Clostridium botulinum A str. ATCC 3502) (assay: blockers of BoNT/A LC substrate cleavage – biochemical, flow cytometry, MLPCN library, primary screen (AID 588499; further: plate controls were buffer without enzyme for full effect and enzyme alone for no effect)). Details: multiplex microsphere protease substrate cleavage, at 10 µM, hits give high values.
In the case of `CCC1(C)Cc2ccccc2-c2nc(NCCCO)n(-c3ccccc3)c(=O)c21` (stereo not given), the inhibition is reported as inactive: -0.6%.
In the case of `CC(=NCc1ccco1)c1c(O)n(C)c(=O)n(C)c1=O`, the inhibition is reported as inactive: 1.2%.
For `Cc1ccc(C(C(=O)NCC2CCCO2)N(C(=O)c2snc(C(N)=O)c2N)c2ccc(C)c(C)c2)o1` (stereo not given), the inhibition was inactive: -4.9%.
In the case of `Cc1cc(=O)[nH]c(-c2ccccc2OC(F)(F)F)n1`, the inhibition is reported as inconclusive: 0.5%.
With `CN1CCCC(OC(=O)c2cccc(Cl)c2)C1` (stereo not given) the inhibition was inconclusive: 2.6%.
In the case of `O=C(Nc1ccc(F)cc1)N1CCOCC1`, the inhibition is reported as inconclusive: 8.1%.
In the case of `COC(=O)CNC(=O)Cc1c(F)cccc1Cl`, the inhibition is reported as inconclusive: -1.7%.
`Cc1ccc(N/N=C(\C#N)C(=N)N2CCCCC2)cc1` was tested, and the inhibition was inconclusive: -12.1%.
With `O=C(Nc1ccc(Cl)cc1)c1ccc2sc([C@@H]3O[C@H](CO)[C@@H](O)[C@H]3O)nc2c1` the inhibition was inactive: 0%.
With `FC(F)(F)/C(=N\P(=S)(N1CCOCC1)N1CCOCC1)N1CCOCC1` the inhibition was inconclusive: 14.1%.
With `O=C(CC1C(=O)NCCN1C(=O)Nc1ccccc1)Nc1ccc2c(c1)OCO2` (stereo not given) the inhibition was inactive: -0.2%.
For `Cc1ccc(C(=O)c2sc3nsc(C)c3c2N)cc1`, the inhibition was inactive: 3.7%.
In the case of `CCOC(=O)C1CCN(c2c(NCc3ccc(C(=O)N(C)Cc4ccccc4)cc3)c(=O)c2=O)CC1`, the inhibition is reported as inactive: 0.3%.
For `C#CCOC(=O)c1ccccc1C(=O)N(CC)CC`, the inhibition was inconclusive: -6.5%.
In the case of `Cc1cc(C(=O)OCC(=O)Nc2ccccc2C#N)c(C)o1`, the inhibition is reported as inconclusive: 3%.
`Cc1nnc(SCCc2ccccc2)[nH]c1=O` was tested, and the inhibition was inconclusive: 7.6%.
`OCCN1CCN(C(=S)c2ccc(Br)cc2)CC1` was tested, and the inhibition was inconclusive: 7.7%.
For `CN(C)/C=C/C(=O)c1ccc(F)cc1F`, the inhibition was inconclusive: -45%.
For `CCOC(=O)C1CCN(C(=O)c2ccc3c(=O)n4nc(Nc5ccccc5)sc4nc3c2)CC1`, the inhibition was inactive: -0.6%.
For `CCN(CC)S(=O)(=O)c1cccc(C(=O)Nc2cccnc2)c1`, the inhibition was inconclusive: 3.3%.
With `O=C(NCc1ccccn1)C1CCC(=O)N1C1CCCCC1` (stereo not given) the inhibition was inactive: 0.2%.
In the case of `O=C1Cc2cc(NS(=O)(=O)c3ccc([N+](=O)[O-])cc3)cc3c2N1CCC3`, the inhibition is reported as inconclusive: 6.7%.
With `Cc1cc(C)cc(N(C(=O)Cc2cccs2)C(C(=O)NC2CCCCC2)c2ccccn2)c1` (stereo not given) the inhibition was inconclusive: -2.1%.
With `CC(C)c1ccc(CN2CCC2(C)C(=O)Nc2ccc3c(c2)OCO3)cc1` (stereo not given) the inhibition was inactive: -0.4%.
`O=C(Nc1cccc(NC(=O)c2ccccc2[N+](=O)[O-])c1)c1ccccc1Cl` was tested, and the inhibition was inconclusive: -0.5%.
`Cc1cccc2c(=O)cc(C(F)(F)F)[nH]c12` was tested, and the inhibition was inconclusive: 18.7%.
With `CC(=O)C[C@H]1c2ccccc2S(=O)(=O)N1C1CCCC1` the inhibition was inactive: 0.3%.
For `COc1ccc(CN2CCN(c3ncccn3)CC2)c(C)c1C`, the inhibition was inactive: -3.3%.
In the case of `CC1CCCC(N2CCN(S(=O)(=O)c3ccccc3)CC2)C1` (stereo not given), the inhibition is reported as inactive: -1.7%.
With `COc1ccc(-n2nc(C)c3sc(C)nc3c2=O)cc1` the inhibition was inconclusive: 7.5%.
For `O=[N+]([O-])c1cc(NS(=O)(=O)c2ccc(Cl)nc2)ccc1Cl`, the inhibition was inconclusive: -194%.
In the case of `CCc1c(C)nc2ncnn2c1N1CCC(C(=O)NCc2ccc3c(c2)OCO3)CC1`, the inhibition is reported as inconclusive: 9.7%.
For `CCc1nc(SCC(=O)NNC(=O)C(C)C)c2ccccc2n1`, the inhibition was inconclusive: -390%.
For `COc1cc(N(C)C)ccc1C=c1c2ccccc2n2c1cc(-c1ccccc1)[n+]2C`, the inhibition was active: 56.5%.
`CC(C)(C)C1CCC(C(=O)Nc2nccs2)CC1` (stereo not given) was tested, and the inhibition was inconclusive: -7.2%.
`Cn1cnnc1SCC(=O)N(Cc1ccc2c(c1)OCO2)C1(C(=O)NC2CCCCC2)CCCC1` was tested, and the inhibition was inactive: 0.7%.
In the case of `COc1cc2c(cc1OC)-c1cc(Nc3ccc(N(C)C)cc3)nc(=O)n1CC2`, the inhibition is reported as inconclusive: -51.5%.
For `Cc1cc(C)cc(NC(=S)N(C)C)c1`, the inhibition was inconclusive: -8.3%.
With `OCC1(CO)COC(c2ccccc2)=N1` the inhibition was inactive: 0.6%.
With `O=c1[nH]c(/C=C/c2cccc([N+](=O)[O-])c2)c([N+](=O)[O-])c(=O)[nH]1` the inhibition was inactive: -1.3%.
For `CCCNC(=O)C(Cc1ccc(F)cc1)NC(=O)c1ccc(C#N)cc1` (stereo not given), the inhibition was inactive: 0%.
With `CC(C(=O)NCC1CCCO1)N1C(=O)C2C3CC(C(Br)C3Br)C2C1=O` (stereo not given) the inhibition was inconclusive: -4.8%.
With `CCOC(=O)c1c(-c2ccccc2Cl)cn2ccccc12` the inhibition was inactive: 1.5%.
With `COc1ccc(N(CC(=O)NCC2CCCO2)S(=O)(=O)c2c(C)noc2C)cc1` (stereo not given) the inhibition was inconclusive: -2.7%.
`COc1ccc(S(=O)(=O)NCc2ccc3c(c2)cc(C)n3C)cc1` was tested, and the inhibition was active: 79.4%.
For `COc1ccc(C(=O)NCCNC(C)=O)cc1S(=O)(=O)NCc1ccc(Cl)cc1`, the inhibition was inactive: -1%.
For `CCCCc1cc(=O)oc2cc(C)cc(OC(C)C(=O)NC(Cc3c[nH]c4ccc(O)cc34)C(=O)O)c12` (stereo not given), the inhibition was inactive: -1.2%.
`O=C(NC1CCCCC1)C1CCN(c2cnccn2)CC1` was tested, and the inhibition was inconclusive: -3%.
In the case of `Cc1cc(N2CCN(C(=O)c3ccco3)CC2)n2nc(-c3cccc(Cl)c3)cc2n1`, the inhibition is reported as inconclusive: -0.2%.
With `CCN(C(=O)COC(=O)c1cnc(C)cn1)C1CCS(=O)(=O)C1` (stereo not given) the inhibition was inconclusive: 8.2%.
With `CCc1ccccc1Cn1c(=O)oc2cccnc21` the inhibition was inconclusive: -2.1%.
For `O=C(CCN1C(=O)/C(=C/c2ccccc2)SC1=S)NNC(=O)c1ccncc1`, the inhibition was inactive: 0.4%.
With `O=C(Cc1ccccc1)Nc1cccc(C(=O)O)c1O` the inhibition was inactive: 0.5%.
For `Cc1cccc(OCc2nc(-c3nonc3N)no2)c1C`, the inhibition was inconclusive: -1.8%.
For `CC1CCCCC1NC(=O)c1ccc(N2CCCC2=O)cc1` (stereo not given), the inhibition was inconclusive: 1.4%.
In the case of `CN1C(=O)NC(=O)C2(Cc3ccccc3N3CCOCC32)C1=O` (stereo not given), the inhibition is reported as inconclusive: -7.2%.
In the case of `Cc1ccc(-c2nnc(-c3ccc(Br)cc3)o2)o1`, the inhibition is reported as inactive: -0.6%.
For `Clc1ccc2nc(-c3ccco3)c(Cc3ccccc3)n2c1`, the inhibition was inactive: 5.5%.
With `COc1cc(C(O)P(=O)(OC2CCCCC2)c2ccc(N(C)C)cc2)cc(OC)c1OC` (stereo not given) the inhibition was inactive: -1.6%.
`O=C1C2C3C=CC(C3)C2C(=O)N1CC1CCCO1` (stereo not given) was tested, and the inhibition was inconclusive: 0.2%.
